Results taken from the supplement of paper PMC10849652.
The list shows a part of the results. Residues, ends and D or L forms follow the SMILES beside them. *: point of attachment. Cbz = O=C(OCc1ccccc1)*

The chains behind the UniProt entries cited, without tags or fusion partners. Where a name states a change or a piece, a line headed by the entry shows the natural chain unless it says otherwise.
UniProt Q8TAG9: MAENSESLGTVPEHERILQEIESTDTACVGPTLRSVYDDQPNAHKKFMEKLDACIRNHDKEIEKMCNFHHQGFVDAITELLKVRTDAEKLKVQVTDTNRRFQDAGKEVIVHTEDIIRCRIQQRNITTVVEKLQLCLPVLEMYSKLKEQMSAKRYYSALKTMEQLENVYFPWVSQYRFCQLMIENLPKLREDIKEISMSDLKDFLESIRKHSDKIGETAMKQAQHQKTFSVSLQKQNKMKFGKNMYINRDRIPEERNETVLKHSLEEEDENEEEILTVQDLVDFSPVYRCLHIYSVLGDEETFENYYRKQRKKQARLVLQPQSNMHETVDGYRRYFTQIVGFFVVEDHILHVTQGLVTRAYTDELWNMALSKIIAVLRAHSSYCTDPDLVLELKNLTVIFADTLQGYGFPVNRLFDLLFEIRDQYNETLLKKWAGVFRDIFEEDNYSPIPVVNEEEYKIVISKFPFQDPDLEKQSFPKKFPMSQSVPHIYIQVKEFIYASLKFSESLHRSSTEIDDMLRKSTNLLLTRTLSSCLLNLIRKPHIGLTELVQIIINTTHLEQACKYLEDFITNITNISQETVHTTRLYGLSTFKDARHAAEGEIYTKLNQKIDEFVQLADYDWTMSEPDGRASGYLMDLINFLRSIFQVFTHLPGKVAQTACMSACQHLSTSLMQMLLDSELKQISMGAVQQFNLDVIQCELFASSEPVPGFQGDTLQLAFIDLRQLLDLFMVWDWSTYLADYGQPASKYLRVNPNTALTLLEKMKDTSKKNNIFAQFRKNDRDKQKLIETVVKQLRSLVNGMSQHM
UniProt Q96A65: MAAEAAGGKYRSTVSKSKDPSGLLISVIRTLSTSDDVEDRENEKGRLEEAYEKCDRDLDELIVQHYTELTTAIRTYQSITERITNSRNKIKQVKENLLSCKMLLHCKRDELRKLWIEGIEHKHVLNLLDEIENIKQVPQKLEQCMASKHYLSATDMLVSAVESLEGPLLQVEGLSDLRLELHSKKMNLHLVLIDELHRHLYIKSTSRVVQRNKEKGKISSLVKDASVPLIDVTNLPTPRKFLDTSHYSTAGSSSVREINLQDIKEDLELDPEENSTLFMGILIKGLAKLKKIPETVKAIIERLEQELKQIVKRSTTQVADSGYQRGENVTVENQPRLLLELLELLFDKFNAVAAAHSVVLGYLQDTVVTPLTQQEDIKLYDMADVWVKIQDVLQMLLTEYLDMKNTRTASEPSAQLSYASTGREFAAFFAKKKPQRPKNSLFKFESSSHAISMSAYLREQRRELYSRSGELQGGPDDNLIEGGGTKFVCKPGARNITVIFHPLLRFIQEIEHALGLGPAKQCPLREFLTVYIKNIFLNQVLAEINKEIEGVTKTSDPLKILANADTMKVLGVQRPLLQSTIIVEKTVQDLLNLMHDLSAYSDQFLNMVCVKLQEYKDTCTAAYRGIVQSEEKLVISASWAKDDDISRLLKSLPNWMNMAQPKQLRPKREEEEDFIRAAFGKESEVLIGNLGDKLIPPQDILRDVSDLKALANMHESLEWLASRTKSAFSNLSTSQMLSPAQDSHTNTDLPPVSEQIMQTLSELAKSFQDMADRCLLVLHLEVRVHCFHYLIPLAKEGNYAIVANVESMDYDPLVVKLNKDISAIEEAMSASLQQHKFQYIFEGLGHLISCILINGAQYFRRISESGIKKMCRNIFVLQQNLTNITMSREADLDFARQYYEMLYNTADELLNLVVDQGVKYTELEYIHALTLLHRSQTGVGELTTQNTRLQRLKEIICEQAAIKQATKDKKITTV
UniProt Q6IPR1: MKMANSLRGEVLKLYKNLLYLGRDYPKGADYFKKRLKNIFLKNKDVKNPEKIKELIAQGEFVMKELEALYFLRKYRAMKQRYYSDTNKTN
UniProt Q96KP1: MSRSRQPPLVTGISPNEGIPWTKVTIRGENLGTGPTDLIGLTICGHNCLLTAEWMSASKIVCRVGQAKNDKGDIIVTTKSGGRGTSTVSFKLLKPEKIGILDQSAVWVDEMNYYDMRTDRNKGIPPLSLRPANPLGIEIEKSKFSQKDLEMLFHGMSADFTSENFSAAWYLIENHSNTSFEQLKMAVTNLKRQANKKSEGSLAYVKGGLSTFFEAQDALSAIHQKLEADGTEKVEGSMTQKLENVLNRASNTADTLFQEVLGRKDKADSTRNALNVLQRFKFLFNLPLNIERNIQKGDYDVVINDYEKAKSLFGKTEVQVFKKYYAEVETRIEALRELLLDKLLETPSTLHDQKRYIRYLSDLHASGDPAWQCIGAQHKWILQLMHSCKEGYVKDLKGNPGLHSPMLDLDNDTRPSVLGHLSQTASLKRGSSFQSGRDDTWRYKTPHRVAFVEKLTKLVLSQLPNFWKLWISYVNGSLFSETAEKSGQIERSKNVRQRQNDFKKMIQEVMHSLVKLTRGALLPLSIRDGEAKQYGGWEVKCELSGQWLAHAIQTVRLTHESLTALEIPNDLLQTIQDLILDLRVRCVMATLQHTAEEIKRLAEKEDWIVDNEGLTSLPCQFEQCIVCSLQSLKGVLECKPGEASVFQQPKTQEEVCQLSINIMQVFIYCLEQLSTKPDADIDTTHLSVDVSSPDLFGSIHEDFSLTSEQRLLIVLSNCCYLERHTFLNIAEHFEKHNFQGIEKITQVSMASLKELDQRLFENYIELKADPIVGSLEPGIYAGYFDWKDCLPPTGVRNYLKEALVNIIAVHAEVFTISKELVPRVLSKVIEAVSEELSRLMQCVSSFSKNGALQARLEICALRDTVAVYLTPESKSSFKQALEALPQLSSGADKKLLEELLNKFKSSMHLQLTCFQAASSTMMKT
UniProt Q8IYI6: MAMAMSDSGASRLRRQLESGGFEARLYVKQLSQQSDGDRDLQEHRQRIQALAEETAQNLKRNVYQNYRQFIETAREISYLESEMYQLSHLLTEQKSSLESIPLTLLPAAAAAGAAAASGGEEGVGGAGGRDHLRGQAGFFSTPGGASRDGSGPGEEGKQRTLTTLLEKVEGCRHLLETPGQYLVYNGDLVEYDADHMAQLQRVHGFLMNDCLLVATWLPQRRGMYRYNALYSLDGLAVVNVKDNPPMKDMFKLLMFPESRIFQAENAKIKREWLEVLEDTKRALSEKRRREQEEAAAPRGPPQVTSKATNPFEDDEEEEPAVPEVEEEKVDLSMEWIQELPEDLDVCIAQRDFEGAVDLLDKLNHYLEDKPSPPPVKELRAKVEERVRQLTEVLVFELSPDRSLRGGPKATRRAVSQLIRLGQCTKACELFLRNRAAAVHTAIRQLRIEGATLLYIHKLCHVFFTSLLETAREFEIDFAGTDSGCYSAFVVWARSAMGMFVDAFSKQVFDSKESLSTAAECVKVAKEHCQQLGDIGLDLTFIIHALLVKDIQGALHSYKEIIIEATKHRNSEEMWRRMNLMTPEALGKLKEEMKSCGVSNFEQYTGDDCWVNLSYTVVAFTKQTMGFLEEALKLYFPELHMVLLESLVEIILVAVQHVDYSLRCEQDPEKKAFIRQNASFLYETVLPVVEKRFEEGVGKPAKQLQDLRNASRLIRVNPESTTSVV
UniProt Q5W0V3: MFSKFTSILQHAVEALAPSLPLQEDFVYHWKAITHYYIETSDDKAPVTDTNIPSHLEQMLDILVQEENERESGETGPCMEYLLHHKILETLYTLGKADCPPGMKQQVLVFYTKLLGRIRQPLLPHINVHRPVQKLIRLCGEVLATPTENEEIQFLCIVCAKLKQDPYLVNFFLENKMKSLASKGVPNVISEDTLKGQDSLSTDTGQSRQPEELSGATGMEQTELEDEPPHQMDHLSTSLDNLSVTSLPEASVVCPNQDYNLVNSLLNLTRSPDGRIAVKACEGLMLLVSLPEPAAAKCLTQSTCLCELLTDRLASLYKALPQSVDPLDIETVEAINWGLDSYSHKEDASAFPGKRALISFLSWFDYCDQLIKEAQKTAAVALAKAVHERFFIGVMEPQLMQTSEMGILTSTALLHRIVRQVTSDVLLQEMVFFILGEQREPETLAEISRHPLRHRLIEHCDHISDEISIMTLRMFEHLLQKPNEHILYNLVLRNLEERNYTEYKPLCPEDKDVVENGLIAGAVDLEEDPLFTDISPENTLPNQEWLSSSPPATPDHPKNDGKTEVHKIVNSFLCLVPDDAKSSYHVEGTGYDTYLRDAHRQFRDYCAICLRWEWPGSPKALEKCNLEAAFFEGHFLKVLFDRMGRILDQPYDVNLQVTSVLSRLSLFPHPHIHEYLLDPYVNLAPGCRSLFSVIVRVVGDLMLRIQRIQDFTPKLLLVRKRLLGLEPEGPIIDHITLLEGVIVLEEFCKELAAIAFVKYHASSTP
UniProt Q9UBQ6: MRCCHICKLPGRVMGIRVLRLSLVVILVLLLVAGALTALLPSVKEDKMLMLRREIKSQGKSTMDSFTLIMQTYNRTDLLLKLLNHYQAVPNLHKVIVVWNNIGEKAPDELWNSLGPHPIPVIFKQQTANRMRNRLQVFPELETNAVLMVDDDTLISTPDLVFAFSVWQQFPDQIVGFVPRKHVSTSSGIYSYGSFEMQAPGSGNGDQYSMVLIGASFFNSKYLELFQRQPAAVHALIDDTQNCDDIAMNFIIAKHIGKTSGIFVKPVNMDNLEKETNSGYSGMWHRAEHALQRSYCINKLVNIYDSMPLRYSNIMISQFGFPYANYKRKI
UniProt Q9NV70: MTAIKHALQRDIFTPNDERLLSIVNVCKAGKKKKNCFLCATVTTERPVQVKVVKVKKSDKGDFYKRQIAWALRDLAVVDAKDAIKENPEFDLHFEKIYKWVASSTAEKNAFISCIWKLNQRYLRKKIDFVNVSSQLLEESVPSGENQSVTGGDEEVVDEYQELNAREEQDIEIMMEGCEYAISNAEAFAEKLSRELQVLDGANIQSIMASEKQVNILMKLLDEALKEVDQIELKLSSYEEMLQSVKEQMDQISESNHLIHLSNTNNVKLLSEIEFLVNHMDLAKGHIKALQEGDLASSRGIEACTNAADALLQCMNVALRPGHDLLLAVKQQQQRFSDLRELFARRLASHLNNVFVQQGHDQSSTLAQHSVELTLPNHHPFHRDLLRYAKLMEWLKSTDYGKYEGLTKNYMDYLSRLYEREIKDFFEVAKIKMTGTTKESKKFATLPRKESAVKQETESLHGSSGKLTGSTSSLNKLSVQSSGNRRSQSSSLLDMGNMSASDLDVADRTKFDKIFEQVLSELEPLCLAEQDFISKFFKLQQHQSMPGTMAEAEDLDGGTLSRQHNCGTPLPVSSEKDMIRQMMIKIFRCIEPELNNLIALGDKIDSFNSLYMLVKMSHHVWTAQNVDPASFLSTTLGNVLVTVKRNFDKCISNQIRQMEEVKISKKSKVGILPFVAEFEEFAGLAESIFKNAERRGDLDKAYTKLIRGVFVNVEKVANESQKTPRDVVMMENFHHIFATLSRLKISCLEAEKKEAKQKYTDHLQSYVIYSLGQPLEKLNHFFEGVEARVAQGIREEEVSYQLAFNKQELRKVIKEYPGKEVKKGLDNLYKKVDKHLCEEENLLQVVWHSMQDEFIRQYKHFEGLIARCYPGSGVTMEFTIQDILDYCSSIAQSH
UniProt Q9NSI2: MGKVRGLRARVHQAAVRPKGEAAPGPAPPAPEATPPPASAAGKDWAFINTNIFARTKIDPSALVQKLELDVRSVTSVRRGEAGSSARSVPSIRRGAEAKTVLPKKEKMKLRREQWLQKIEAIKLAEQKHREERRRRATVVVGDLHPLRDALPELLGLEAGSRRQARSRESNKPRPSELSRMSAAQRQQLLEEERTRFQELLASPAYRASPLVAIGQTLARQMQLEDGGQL
UniProt Q9UPT5: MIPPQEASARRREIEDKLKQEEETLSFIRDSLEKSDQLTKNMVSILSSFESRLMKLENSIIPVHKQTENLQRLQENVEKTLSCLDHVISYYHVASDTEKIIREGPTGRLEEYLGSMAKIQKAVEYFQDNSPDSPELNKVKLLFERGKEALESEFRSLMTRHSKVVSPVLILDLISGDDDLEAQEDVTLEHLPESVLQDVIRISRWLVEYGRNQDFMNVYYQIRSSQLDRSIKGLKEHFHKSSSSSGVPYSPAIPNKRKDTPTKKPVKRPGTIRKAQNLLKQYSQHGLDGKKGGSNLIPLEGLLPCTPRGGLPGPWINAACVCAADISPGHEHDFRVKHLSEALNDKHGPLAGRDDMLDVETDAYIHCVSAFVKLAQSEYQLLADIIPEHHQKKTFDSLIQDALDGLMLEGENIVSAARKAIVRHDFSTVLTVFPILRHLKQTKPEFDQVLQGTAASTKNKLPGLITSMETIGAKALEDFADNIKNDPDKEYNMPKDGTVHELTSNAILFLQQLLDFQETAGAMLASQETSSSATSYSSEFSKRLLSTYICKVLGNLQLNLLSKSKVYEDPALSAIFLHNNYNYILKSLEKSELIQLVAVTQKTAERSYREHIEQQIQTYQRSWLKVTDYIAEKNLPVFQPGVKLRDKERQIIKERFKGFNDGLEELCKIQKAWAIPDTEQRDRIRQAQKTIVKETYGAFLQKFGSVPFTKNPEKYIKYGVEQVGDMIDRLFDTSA

How the values were obtained:
Assay in all cases: log2 fold change, soluble protein after heating vs DMSO (PISA); higher = thermal stabilisation; K562 cells, 10 uM, 30 min; active = over 0.2 and 3.5 SD of the protein, either way, in both replicates (recomputed)
erlotinib = compound: C#Cc1cccc(Nc2ncnc3cc(OCCOC)c(OCCOC)cc23)c1 [erlotinib]
In short: (§1)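 Aliquots of K562 cells (2×10^6 cells/mL) treated with 10 μM compound for 30 min were heated for 3 min over 48°C-58°C. After pooling and extraction in PBS with 0.5% NP-40 at 4°C, soluble protein from a 21,000xg, 90 min spin was quantified by TMTpro 16plex LC-MS/MS with channel sums equalised. Thermal stability is expressed against control samples, from duplicates, as a log2 fold change.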

[1] = compound: C/C(=N\NC(=O)C1=CC(=CC=C1)S(=O)(=O)N2CCOCC2)/C3=C(C=CC(=C3)Cl)O
In short: as §1

[2] = compound: C1=CC(=C(C=C1Cl)C2=NC3=NC=CN=C3C(=N2)NC4=CC=NC=C4)F
In short: as §1

[3] = compound: C1=CC(=CC=C1C2=NC3=C(N2)C=C(C=C3)C(=O)N)OC4=CC=C(C=C4)Cl
In short: as §1

[4] = compound: C1=CC2=C(C=CC(=C2)/C=C\3/C(=O)NC(=NCC4=CC=CS4)S3)N=C1
In short: as §1

[5] = compound: C1=CC2=NC=CN=C2C=C1/C=C/3\C(=O)NC(=O)S3
In short: as §1

[6] = compound: C1=CC=C(C=C1)C2=NC(=C(N2)C3=CC=NC=C3)C4=CC(=C(C=C4)Cl)O
In short: as §1

[7] = compound: C1=CC=C2C(=C1)C3=NNC4=CC=CC(=C43)C2=O
In short: as §1

[8] = compound: C1CCN(C1)C(=O)NC2=CC=CC(=C2)NC3=NC=C(C(=N3)NCCC4=CN=CN4)Br
In short: as §1

[9] = compound: C1CN(CCC1(CC2=CC=C(C=C2)Cl)N)C3=NC=NC4=C3C=CN4
In short: as §1

IRAK-1-4 Inhibitor I = compound: C1COCCN1CCN2C3=CC=CC=C3N=C2NC(=O)C4=CC(=CC=C4)[N+](=O)[O-] [IRAK-1-4 Inhibitor I]
In short: as §1

ibrutinib = compound: C=CC(=O)N1CCC[C@@H](n2nc(-c3ccc(Oc4ccccc4)cc3)c3c(N)ncnc32)C1 [ibrutinib]
In short: as §1

[10] = compound: CC(=O)c1cnc2ccc(-c3cc(Cl)c(O)c(Cl)c3)nc2c1N[C@H]1CC[C@H](CN(C)C)CC1
In short: as §1

ralimetinib = compound: CC(C)(C)Cn1c(N)nc2ccc(-c3[nH]c(C(C)(C)C)nc3-c3ccc(F)cc3)nc21 [ralimetinib]
In short: as §1

[11] = compound: CC(C)(O)CC(=O)NCCn1ccc2ncnc(Nc3ccc(Oc4cccc(C(F)(F)F)c4)c(Cl)c3)c21
In short: as §1

[12] = compound: CC(C)C1=C2N=C(C=C(N2N=C1)NCC3=CC=CC=C3)NCCCCCCN
In short: as §1

[13] = compound: CC(C)C[C@@H](C=O)NC(=O)[C@H](CC(C)C)NC(=O)[C@H](CC(C)C)NC(=O)OCc1ccccc1
In short: as §1

pinometostat = compound: CC(C)N(C[C@H]1O[C@@H](n2cnc3c(N)ncnc32)[C@H](O)[C@@H]1O)[C@H]1C[C@@H](CCc2nc3cc(C(C)(C)C)ccc3[nH]2)C1 [pinometostat]
In short: as §1

[14] = compound: CC1=C(C2=C(C=C1)C(=O)C3=CC=CC=C3N2CCCN)C
In short: as §1

[15] = compound: CC1=C(C(CC(=O)N1)C2=CC=C(C=C2)C(F)(F)F)C(=O)NC3=C(C=C4C(=C3)C=NN4)F
In short: as §1

Measured: log2 fold change

EVC2 (UniProt Q86UK5)
inactive: erlotinib -0.01 | [1] -0.044 | [2] -0.013 | [3] -0.035 | [4] -0.069 | [5] -0.019 | [6] -0.002 | [7] 0.061 | [8] -0.042 | [9] -0.117 | IRAK-1-4 Inhibitor I 0.052 | ibrutinib 0.032 | [10] -0.061 | ralimetinib -0.15 | [11] 0.038 | [12] 0.064 | [13] 0.038 | pinometostat -0.011 | [14] -0.014

EXOC6 (UniProt Q8TAG9)
inactive: erlotinib 0.073 | [1] 0.127 | [2] 0.006 | [3] -0.025 | [4] 0.096 | [5] 0.076 | [6] 0.069 | [7] 0.003 | [8] -0.045 | [9] -0.042 | IRAK-1-4 Inhibitor I -0.046 | ibrutinib -0.007 | [10] -0.014 | ralimetinib 0.102 | [11] -0.084 | [13] 0.042 | pinometostat 0.056 | [14] 0.032
active: [12] -0.397

EXOC4 (UniProt Q96A65)
active: [12] -0.442
inactive: erlotinib 0.131 | [1] 0.159 | [2] 0.044 | [3] -0.071 | [4] 0.09 | [5] 0.033 | [6] -0.036 | [7] -0.018 | [8] -0.02 | [9] -0.083 | IRAK-1-4 Inhibitor I -0.123 | ibrutinib -0.028 | [10] -0.007 | ralimetinib 0.024 | [11] -0.099 | [13] 0.04 | pinometostat 0.143 | [14] -0.01

ETFRF1 (UniProt Q6IPR1)
inactive: erlotinib 0.063 | [1] -0.032 | [2] -0.043 | [3] 0.025 | [4] 0.179 | [5] 0.066 | [6] 0.059 | [7] 0.023 | [8] 0.016 | [9] -0.102 | IRAK-1-4 Inhibitor I 0.075 | ibrutinib -0.056 | [10] 0.01 | ralimetinib -0.031 | [11] 0.044 | [12] 0.053 | [13] -0.071 | pinometostat -0.014 | [15] 0.036 | [14] -0.001

EXOC2 (UniProt Q96KP1)
active: [12] -0.43
inactive: erlotinib 0.07 | [1] 0.083 | [2] -0.027 | [3] -0.045 | [4] 0.05 | [5] 0.006 | [6] -0.013 | [7] 0.054 | [8] -0.014 | [9] -0.119 | IRAK-1-4 Inhibitor I -0.092 | ibrutinib -0.018 | [10] -0.048 | ralimetinib 0.08 | [11] -0.052 | [13] 0.027 | pinometostat 0.172 | [14] 0.007

FADS1, A0A0A0MR51
active: [6] 0.231 | [11] 0.355
inactive: erlotinib 0.016 | [1] -0.11 | [2] -0.049 | [3] -0.134 | [4] 0.09 | [5] 0.05 | [7] -0.008 | [8] -0.006 | [9] 0.002 | IRAK-1-4 Inhibitor I 0.085 | ibrutinib 0.015 | [10] -0.07 | ralimetinib 0.017 | [12] -0.044 | [13] 0.05 | pinometostat 0.027 | [14] 0.003

ETNK1 (UniProt Q9HBU6)
inactive: erlotinib 0.004 | [1] 0.128 | [2] 0.244 | [3] -0.001 | [4] -0.126 | [5] 0.035 | [6] 0.037 | [7] 0.028 | [8] -0.033 | [9] -0.119 | IRAK-1-4 Inhibitor I 0.035 | ibrutinib -0.05 | [10] 0.044 | ralimetinib -0.017 | [11] -0.205 | [12] 0.087 | [13] 0.043 | pinometostat 0.019 | [14] 0.079

EXOC8 (UniProt Q8IYI6)
inactive: erlotinib 0.048 | [1] 0.144 | [2] -0.042 | [3] -0.056 | [4] 0.05 | [5] 0.017 | [6] -0.012 | [7] 0.001 | [8] -0.053 | [9] -0.054 | IRAK-1-4 Inhibitor I -0.094 | ibrutinib -0.001 | [10] 0.014 | ralimetinib 0.049 | [11] -0.128 | [13] -0.032 | pinometostat 0.051 | [14] -0.002
active: [12] -0.317

FAM160B1 (UniProt Q5W0V3)
active: [12] -0.285
inactive: erlotinib 0.034 | [1] 0.085 | [2] 0.012 | [3] -0.007 | [4] 0.019 | [5] 0.037 | [6] -0.005 | [7] 0 | [8] -0.035 | [9] -0.021 | IRAK-1-4 Inhibitor I 0.019 | ibrutinib 0.012 | [10] 0.03 | ralimetinib 0.005 | [11] -0.05 | [13] 0.019 | pinometostat -0.019 | [14] -0.051

EXTL2 (UniProt Q9UBQ6)
inactive: erlotinib 0.051 | [1] 0.018 | [2] -0.129 | [3] 0.04 | [4] 0.016 | [5] 0.037 | [6] -0.031 | [7] 0.062 | [8] -0.092 | [9] -0.119 | IRAK-1-4 Inhibitor I -0.018 | ibrutinib 0.019 | [10] -0.073 | ralimetinib -0.061 | [11] 0.062 | [12] 0.01 | [13] 0.041 | pinometostat 0 | [14] 0.12

EXOSC10 (UniProt Q01780)
inactive: erlotinib 1.07 | [2] 0.136 | [3] 0.008 | [4] 0.078 | [5] -0.101 | [6] -0.444 | [7] -0.055 | [8] 0.052 | [9] 0.067 | IRAK-1-4 Inhibitor I 0.165 | ibrutinib 0.033 | [10] 0.026 | ralimetinib -0.261 | [11] -0.01 | [12] 0.213 | [13] 0.247 | pinometostat 0.059 | [14] 0.076
active: [1] -0.86

FAM122A (UniProt Q96E09)
inactive: erlotinib 0.095 | [1] 0.073 | [2] 0.053 | [3] -0.025 | [4] -0.068 | [5] 0.051 | [6] -0.019 | [7] 0.03 | [8] 0.031 | [9] -0.075 | IRAK-1-4 Inhibitor I 0.002 | ibrutinib 0.016 | [10] -0.015 | ralimetinib -0.053 | [11] 0.105 | [12] 0.066 | [13] 0.016 | pinometostat -0.008 | [14] -0.117

EXOC1 (UniProt Q9NV70)
active: [12] -0.419
inactive: erlotinib 0.057 | [1] 0.163 | [2] -0.104 | [3] -0.05 | [4] 0.17 | [5] 0.013 | [6] 0.051 | [7] 0.054 | [8] -0.044 | [9] -0.073 | IRAK-1-4 Inhibitor I -0.085 | ibrutinib -0.015 | [10] -0.033 | ralimetinib 0.112 | [11] -0.151 | [13] 0.018 | pinometostat 0.214 | [14] 0.071

FAM207A (UniProt Q9NSI2)
inactive: erlotinib -0.082 | [1] -0.092 | [2] -0.039 | [3] -0.032 | [4] -0.204 | [5] -0.018 | [6] -0.027 | [7] 0.006 | [8] -0.159 | [9] -0.054 | IRAK-1-4 Inhibitor I -0.043 | ibrutinib -0.082 | [10] 0.057 | ralimetinib 0.123 | [11] -0.033 | [12] -0.066 | [13] 0.088 | pinometostat 0.024 | [14] 0.038

Copied from the entries so far (2 entries):
EXTL2 (UniProt Q9UBQ6)
inactive: erlotinib 0.051 | [1] 0.018 | [2] -0.129 | [3] 0.04 | [4] 0.016 | [5] 0.037 | [6] -0.031 | [7] 0.062 | [8] -0.092 | [9] -0.119 | IRAK-1-4 Inhibitor I -0.018 | ibrutinib 0.019 | [10] -0.073 | ralimetinib -0.061 | [11] 0.062 | [12] 0.01 | [13] 0.041 | pinometostat 0 | [14] 0.12

EXOSC10 (UniProt Q01780)
inactive: erlotinib 1.07 | [2] 0.136 | [3] 0.008 | [4] 0.078 | [5] -0.101 | [6] -0.444 | [7] -0.055 | [8] 0.052 | [9] 0.067 | IRAK-1-4 Inhibitor I 0.165 | ibrutinib 0.033 | [10] 0.026 | ralimetinib -0.261 | [11] -0.01 | [12] 0.213 | [13] 0.247 | pinometostat 0.059 | [14] 0.076
active: [1] -0.86

Next records

EXOC7 (UniProt Q9UPT5)
inactive: erlotinib 0.032 | [1] 0.074 | [2] 0.001 | [3] -0.042 | [4] 0.048 | [5] 0.016 | [6] 0.011 | [7] -0.016 | [8] -0.023 | [9] -0.014 | IRAK-1-4 Inhibitor I -0.047 | ibrutinib -0.029 | [10] 0.002 | ralimetinib 0.049 | [11] -0.109 | [12] -0.276 | [13] 0.044 | pinometostat 0.043 | [14] 0.045

ERCC6 (UniProt Q03468)
inactive: erlotinib -0.036 | [1] 0.06 | [2] 0.028 | [3] -0.063 | [4] -0.096 | [5] -0.224 | [6] -0.052 | [7] 0.003 | [8] -0.065 | [9] 0.106 | IRAK-1-4 Inhibitor I 0.05 | ibrutinib -0.079 | [10] 0.11 | ralimetinib 0.05 | [11] -0.094 | [12] -0.015 | [13] 0.018 | pinometostat -0.078 | [14] -0.041

ETF1 (UniProt P62495)
inactive: erlotinib 0.07 | [1] 0.012 | [2] 0.051 | [3] -0.025 | [4] 0.042 | [5] 0.035 | [6] 0.006 | [7] 0.007 | [8] 0.018 | [9] 0.022 | IRAK-1-4 Inhibitor I 0.039 | ibrutinib -0.017 | [10] -0.034 | ralimetinib -0.043 | [11] -0.023 | [12] -0.055 | [13] -0.003 | pinometostat 0.014 | [15] -0.001 | [14] 0.015
